Results from patent US20210361740A1.
These are yes or no findings as the source states them, for the method shown. Binding seen in cells or lysates may run through a third protein. Some binding calls cover weakened binding; strength is not graded here.

Protein sequences, listed by entry. Tags and fused reporters are not part of them. Residues count along the entry.
UniProt Q9QUK6, residues 26-835: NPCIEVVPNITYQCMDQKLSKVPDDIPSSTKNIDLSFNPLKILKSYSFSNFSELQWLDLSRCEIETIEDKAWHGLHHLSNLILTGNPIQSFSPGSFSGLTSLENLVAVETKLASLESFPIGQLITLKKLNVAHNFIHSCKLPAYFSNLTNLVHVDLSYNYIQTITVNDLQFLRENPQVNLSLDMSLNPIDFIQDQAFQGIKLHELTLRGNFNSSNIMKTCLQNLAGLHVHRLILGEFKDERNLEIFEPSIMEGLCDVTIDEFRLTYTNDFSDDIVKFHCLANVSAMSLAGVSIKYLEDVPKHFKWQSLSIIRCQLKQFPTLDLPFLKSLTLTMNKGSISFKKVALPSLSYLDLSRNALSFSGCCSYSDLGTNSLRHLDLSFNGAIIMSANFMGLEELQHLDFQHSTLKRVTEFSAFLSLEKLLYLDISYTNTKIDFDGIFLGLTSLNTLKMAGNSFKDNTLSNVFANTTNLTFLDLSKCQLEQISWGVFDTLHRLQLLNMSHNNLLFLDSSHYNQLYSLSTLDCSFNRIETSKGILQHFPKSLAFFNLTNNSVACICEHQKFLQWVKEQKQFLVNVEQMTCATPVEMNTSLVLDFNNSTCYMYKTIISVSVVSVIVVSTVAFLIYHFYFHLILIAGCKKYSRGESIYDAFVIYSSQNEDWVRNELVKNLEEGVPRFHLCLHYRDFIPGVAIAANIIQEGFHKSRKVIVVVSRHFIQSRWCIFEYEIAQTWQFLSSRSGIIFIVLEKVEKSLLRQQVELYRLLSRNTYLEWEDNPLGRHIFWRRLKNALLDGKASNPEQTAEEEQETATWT
UniProt Q9QUN7, residues 25-784: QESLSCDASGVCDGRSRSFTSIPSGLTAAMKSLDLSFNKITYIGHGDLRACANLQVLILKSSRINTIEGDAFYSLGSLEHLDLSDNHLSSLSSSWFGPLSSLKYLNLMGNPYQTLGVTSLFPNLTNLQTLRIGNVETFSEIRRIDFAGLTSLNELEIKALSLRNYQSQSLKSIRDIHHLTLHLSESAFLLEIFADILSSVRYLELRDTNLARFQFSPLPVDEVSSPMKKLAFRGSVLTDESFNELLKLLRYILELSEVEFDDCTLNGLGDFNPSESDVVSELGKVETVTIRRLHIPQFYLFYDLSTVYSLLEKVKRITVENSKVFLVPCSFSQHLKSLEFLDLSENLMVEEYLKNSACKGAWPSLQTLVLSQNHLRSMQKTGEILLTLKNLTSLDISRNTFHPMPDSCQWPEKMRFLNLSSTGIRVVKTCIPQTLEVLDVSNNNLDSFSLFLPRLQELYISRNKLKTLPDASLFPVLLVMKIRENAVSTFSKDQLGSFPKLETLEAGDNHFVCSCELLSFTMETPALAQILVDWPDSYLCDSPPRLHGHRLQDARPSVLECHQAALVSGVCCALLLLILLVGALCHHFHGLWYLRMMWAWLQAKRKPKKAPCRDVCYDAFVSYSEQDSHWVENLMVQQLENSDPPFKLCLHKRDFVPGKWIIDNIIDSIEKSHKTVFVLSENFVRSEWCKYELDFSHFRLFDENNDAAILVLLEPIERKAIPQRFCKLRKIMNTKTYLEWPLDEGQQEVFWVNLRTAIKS
UniProt P22366: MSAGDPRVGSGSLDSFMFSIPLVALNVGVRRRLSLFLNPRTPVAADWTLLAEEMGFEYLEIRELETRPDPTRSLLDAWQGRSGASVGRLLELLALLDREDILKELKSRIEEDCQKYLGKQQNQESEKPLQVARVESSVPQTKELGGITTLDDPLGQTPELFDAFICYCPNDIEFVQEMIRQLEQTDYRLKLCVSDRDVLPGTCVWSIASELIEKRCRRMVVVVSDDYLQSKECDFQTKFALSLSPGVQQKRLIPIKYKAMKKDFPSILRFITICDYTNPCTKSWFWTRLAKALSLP

Experiments:
[1] = biological target: TLR4 (endogenous, in BV-2 microglial cells) (UniProt Q9QUK6); experiment: co-immunoprecipitation: anti-MyD88 IP, TLR4 blot, BV-2 cell extracts
[2] = biological target: TLR2 (endogenous, in microglial cells) (mouse) (UniProt Q9QUN7); experiment: densitometry of the co-immunoprecipitation (IP anti-MyD88, immunoblot TLR2) in BV-2 cells [G-L), panel H]
[3] = biological target: TLR4 (endogenous, in BV-2 microglial cells) (UniProt Q9QUK6); experiment: densitometry of the co-immunoprecipitation (IP anti-MyD88, immunoblot TLR4) in BV-2 cells [G-L), panel J]
[4] = biological target: TLR2 (endogenous, in microglial cells) (mouse) (UniProt Q9QUN7); experiment: co-immunoprecipitation from BV-2 microglial cell extracts: IP anti-MyD88, immunoblot TLR2; cells preincubated with wtTIDM or mTIDM peptide [G-L), panel G]
[5] = biological target: TLR4 (endogenous, in BV-2 microglial cells) (UniProt Q9QUK6); experiment: co-immunoprecipitation from BV-2 microglial cell extracts: IP anti-MyD88, immunoblot TLR4; cells preincubated with wtTIDM or mTIDM peptide [G-L), panel I]

Measured: binding

MyD88 (myeloid differentiation primary response 88), endogenous in BV-2 microglial cells (from UniProt P22366 1-296)
binds: all assays above
